In the experiment the target is endogenous HCK (hematopoietic cell kinase) (mouse (endogenous in iBMDMs / PMs)) (UniProt P08103). Description: co-IP; endogenous proteins; LPS-primed iBMDMs treated or not with 1 μM A419259 and stimulated with 5 μM nigericin; anti-HCK or anti-ASC antibody on protein A/G magnetic beads, overnight at 4°C; immunoblot.

Sequences of proteins named here, by UniProt entry; tags and fusion partners are left off.
UniProt P08103: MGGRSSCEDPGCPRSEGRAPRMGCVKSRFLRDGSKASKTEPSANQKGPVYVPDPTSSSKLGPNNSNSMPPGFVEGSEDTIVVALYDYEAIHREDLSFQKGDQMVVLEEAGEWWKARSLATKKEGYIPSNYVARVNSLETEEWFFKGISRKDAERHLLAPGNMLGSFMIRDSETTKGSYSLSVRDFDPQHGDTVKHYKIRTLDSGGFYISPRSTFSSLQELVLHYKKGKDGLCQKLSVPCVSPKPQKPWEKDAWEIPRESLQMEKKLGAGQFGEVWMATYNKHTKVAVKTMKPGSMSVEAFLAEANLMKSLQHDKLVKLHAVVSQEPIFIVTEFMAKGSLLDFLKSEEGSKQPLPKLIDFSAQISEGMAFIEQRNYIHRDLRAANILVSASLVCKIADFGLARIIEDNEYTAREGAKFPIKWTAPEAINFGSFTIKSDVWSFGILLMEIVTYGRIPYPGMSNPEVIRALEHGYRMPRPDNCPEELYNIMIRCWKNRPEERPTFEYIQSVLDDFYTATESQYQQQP
UniProt Q8R4B8: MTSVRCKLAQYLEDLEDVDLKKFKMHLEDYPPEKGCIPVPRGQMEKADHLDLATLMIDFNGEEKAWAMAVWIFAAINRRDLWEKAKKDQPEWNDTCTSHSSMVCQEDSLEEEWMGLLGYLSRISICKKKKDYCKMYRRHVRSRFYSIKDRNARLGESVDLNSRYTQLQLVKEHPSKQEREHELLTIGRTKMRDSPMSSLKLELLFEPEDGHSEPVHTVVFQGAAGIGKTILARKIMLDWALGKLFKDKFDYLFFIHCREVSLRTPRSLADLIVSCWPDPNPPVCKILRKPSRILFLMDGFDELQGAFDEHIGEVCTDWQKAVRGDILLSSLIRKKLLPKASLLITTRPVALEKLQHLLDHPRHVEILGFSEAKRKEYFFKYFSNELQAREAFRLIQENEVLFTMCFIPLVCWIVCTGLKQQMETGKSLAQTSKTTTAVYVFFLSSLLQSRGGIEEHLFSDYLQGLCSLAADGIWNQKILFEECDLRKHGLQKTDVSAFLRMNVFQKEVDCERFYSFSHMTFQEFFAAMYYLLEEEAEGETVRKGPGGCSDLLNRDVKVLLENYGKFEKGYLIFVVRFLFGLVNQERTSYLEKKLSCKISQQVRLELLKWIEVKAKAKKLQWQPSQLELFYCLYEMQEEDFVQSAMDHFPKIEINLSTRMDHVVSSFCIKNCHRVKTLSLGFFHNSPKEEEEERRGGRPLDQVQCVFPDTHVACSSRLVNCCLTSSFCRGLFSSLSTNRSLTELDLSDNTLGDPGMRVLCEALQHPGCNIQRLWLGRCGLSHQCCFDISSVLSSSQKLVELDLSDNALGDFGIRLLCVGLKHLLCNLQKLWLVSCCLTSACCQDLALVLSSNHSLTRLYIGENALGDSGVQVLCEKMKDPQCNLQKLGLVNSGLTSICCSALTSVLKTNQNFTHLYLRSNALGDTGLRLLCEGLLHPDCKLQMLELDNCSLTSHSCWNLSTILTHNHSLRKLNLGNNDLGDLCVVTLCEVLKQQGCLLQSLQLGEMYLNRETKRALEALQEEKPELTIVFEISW

From PMC7523510 come the findings set out here.

Results are given in words; binding and its absence hold for the method and conditions named. Binding seen in cells or lysates may run through a third protein. Some binding calls cover weakened binding; strength is not graded here.

With “endogenous NLRP3 (from UniProt Q8R4B8 1-1033)”, the binding result is recorded as “binds”.
